The other results are listed elsewhere or left out.

Chains of the proteins cited; added tags and fusions are not shown. Lines headed by an entry give the natural chain unless they say otherwise; changes in a name come on top.
UniProt Q9Y6J9: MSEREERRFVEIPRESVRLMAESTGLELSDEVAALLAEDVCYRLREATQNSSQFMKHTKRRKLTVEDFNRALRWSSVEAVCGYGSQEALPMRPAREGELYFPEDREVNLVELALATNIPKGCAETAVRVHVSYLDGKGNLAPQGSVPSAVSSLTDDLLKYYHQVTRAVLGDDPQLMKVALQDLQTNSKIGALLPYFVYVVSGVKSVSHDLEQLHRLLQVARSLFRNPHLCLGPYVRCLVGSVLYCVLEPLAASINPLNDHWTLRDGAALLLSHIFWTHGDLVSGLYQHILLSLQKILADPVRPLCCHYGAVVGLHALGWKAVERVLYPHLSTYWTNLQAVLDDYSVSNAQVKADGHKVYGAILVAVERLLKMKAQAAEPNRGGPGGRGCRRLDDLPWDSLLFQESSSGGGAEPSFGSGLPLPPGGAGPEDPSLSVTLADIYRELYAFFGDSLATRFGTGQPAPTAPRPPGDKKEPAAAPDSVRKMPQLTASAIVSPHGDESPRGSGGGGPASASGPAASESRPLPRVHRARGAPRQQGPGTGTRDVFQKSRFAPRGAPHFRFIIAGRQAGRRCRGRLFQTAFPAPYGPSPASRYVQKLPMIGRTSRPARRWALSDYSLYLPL
UniProt O94901, whole entry, looked up: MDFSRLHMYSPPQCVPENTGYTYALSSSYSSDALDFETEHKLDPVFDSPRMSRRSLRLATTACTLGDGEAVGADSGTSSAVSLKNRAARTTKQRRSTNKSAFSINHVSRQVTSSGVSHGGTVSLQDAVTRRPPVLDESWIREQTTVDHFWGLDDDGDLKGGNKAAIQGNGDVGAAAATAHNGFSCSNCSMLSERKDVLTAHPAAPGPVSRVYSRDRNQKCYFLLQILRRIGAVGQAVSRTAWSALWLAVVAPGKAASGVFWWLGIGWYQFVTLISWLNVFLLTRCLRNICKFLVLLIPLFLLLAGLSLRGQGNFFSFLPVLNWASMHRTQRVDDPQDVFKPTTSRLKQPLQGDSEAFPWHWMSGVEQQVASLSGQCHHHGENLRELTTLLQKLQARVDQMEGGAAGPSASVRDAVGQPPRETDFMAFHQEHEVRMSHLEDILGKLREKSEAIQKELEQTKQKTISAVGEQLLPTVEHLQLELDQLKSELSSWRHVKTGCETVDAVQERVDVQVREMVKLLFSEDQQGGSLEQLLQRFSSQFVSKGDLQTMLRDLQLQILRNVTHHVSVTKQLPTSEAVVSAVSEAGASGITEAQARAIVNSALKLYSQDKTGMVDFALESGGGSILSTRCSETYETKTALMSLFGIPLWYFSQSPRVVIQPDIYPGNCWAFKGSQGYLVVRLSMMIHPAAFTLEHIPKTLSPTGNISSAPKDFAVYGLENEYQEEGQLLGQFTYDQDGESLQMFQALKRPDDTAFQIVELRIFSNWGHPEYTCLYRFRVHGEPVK
UniProt Q96C24: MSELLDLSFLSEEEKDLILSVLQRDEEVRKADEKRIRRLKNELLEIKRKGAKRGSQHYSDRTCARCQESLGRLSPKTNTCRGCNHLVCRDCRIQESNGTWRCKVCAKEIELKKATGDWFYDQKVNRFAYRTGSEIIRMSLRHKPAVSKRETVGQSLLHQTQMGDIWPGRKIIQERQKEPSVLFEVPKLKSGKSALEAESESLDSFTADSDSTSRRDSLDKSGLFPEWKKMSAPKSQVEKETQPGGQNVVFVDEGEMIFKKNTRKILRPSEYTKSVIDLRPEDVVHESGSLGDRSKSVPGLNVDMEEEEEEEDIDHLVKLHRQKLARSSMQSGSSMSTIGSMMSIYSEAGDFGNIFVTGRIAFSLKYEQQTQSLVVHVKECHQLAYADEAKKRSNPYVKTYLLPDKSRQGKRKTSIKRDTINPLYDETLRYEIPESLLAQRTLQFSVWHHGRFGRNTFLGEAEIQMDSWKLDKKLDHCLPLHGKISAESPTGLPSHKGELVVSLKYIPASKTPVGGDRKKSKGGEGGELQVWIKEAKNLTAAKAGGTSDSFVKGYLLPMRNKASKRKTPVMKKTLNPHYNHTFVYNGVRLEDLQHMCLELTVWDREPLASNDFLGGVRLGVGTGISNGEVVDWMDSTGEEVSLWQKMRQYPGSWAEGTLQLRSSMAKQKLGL
UniProt O95359: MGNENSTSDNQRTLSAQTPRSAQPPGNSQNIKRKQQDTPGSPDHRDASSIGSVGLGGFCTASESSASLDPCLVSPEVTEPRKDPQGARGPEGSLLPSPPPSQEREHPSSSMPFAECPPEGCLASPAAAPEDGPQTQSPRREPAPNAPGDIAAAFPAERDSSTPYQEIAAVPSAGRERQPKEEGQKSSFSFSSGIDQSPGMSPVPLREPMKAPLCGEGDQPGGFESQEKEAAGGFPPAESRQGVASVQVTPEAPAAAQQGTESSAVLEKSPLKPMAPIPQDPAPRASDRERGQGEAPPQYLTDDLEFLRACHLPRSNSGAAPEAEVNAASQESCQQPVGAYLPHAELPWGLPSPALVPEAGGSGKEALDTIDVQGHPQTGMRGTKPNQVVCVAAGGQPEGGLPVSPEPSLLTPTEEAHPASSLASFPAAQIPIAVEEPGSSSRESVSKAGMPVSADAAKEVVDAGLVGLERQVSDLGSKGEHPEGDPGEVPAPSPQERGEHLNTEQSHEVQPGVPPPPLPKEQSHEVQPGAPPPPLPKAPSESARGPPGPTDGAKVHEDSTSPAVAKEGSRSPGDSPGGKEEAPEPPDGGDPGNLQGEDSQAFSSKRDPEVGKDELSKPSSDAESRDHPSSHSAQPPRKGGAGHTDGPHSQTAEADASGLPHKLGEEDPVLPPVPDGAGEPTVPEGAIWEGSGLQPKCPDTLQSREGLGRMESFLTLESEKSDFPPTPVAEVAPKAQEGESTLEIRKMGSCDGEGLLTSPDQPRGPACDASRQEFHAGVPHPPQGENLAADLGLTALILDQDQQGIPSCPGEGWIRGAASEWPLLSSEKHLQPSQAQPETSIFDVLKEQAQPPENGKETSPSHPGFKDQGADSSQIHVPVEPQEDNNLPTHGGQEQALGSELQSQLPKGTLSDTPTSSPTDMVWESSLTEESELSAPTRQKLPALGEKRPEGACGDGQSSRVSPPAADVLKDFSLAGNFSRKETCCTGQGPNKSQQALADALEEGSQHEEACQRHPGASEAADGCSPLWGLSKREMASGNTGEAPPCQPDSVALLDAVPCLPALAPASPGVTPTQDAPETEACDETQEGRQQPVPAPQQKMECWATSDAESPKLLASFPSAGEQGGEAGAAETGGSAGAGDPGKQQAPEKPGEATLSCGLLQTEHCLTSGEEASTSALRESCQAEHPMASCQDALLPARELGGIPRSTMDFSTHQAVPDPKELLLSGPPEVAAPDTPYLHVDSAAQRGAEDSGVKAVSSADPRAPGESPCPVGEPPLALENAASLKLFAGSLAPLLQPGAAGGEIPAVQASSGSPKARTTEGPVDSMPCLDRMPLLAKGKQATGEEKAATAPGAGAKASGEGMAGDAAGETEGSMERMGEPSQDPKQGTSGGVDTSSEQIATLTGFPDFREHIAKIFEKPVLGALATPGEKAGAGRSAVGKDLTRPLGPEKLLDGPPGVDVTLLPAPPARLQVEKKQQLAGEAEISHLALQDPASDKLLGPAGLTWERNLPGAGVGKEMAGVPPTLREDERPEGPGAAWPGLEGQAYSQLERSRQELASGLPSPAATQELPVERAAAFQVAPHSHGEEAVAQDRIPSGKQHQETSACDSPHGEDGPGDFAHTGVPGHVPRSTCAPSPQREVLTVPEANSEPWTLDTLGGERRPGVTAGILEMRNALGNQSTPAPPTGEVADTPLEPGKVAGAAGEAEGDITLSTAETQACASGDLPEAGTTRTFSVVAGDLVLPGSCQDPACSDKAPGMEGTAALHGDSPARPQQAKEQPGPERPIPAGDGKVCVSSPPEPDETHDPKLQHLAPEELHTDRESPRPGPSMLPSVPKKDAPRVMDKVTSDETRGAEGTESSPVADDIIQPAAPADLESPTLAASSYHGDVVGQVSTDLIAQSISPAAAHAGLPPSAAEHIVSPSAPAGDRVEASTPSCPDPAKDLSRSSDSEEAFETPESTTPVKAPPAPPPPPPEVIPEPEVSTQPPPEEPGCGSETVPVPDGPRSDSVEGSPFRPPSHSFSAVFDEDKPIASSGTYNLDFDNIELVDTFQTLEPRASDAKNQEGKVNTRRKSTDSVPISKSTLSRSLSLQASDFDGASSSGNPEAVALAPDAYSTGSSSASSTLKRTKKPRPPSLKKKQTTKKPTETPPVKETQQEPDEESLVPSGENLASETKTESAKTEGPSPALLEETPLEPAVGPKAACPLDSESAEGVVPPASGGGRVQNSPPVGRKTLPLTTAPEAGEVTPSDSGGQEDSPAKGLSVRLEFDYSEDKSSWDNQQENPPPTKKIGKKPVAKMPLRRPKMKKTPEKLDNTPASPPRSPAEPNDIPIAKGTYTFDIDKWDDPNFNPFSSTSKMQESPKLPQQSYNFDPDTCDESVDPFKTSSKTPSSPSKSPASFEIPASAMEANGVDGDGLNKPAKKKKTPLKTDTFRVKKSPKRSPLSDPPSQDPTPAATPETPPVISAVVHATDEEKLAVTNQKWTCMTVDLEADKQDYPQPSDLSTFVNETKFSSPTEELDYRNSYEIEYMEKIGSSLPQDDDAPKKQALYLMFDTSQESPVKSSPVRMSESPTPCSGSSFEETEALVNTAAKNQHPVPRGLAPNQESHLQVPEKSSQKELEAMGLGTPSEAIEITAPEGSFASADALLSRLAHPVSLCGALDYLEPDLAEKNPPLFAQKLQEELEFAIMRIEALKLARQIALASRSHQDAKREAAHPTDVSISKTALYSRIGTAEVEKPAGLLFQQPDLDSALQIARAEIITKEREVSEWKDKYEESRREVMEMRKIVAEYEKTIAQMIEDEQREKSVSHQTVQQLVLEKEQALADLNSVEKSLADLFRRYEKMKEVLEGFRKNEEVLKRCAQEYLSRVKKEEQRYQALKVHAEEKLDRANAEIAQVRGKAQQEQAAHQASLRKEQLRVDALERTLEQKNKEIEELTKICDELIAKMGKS
UniProt Q8IX01: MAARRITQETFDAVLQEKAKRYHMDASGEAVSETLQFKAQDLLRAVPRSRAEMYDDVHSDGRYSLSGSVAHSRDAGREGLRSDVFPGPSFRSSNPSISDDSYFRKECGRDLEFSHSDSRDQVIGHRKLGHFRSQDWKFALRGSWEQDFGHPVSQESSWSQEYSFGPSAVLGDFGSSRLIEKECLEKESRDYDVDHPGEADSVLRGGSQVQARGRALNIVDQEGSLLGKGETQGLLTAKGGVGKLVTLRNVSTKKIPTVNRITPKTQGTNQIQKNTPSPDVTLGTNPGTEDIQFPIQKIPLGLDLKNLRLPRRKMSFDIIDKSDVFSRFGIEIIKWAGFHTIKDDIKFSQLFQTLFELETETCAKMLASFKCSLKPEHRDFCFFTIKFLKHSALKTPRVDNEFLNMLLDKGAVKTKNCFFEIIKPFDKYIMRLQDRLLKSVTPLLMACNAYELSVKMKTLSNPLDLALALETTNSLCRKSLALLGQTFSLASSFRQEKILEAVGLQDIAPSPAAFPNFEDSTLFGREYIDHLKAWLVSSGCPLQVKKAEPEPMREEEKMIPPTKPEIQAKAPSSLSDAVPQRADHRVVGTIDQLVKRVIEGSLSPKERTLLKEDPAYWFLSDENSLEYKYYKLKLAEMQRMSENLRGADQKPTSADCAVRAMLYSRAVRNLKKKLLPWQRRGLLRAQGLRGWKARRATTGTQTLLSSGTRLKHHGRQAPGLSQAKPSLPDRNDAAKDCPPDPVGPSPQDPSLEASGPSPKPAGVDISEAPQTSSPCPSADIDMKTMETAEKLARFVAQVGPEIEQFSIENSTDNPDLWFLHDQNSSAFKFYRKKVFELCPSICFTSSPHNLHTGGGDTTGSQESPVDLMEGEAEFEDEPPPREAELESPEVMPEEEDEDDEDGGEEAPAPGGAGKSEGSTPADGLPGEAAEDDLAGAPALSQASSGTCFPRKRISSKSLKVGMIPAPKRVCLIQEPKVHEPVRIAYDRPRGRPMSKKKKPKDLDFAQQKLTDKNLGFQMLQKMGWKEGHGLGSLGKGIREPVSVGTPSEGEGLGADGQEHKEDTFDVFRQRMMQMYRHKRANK
UniProt Q16514: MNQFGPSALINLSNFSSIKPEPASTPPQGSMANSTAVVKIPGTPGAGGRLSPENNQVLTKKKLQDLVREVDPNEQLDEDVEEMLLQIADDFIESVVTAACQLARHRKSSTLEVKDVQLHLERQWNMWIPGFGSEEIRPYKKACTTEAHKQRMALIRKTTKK
UniProt Q01995: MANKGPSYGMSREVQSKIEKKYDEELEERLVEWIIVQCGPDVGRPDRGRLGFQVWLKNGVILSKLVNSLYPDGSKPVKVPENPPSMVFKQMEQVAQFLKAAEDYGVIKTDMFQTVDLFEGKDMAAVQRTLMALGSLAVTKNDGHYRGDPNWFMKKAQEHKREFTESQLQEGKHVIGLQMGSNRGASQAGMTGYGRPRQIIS
UniProt Q8N300: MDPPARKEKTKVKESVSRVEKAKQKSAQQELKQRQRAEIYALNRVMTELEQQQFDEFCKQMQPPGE

Compound in the assay: CC1=C(C=C(C=C1)NC(=O)C2=CC(=CC=C2)C(C)(C)C#N)NC3=CC4=C(C=C3)N=CN(C4=O)C
Kind of assay: log2 fold change, soluble protein after heating vs DMSO (PISA); higher = thermal stabilisation; K562 cells, 10 uM, 30 min; active = over 0.2 and 3.5 SD of the protein, either way, in both replicates (recomputed). The essentials: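 Soluble protein was defined as the supernatant after 21,000xg for 90 min. It came from K562 cells at 2×10^6 cells/mL given 10 μM compound for 30 min, heated in aliquots for 3 min across 48°C-58°C, pooled, and extracted in PBS with 0.5% NP-40 at 4°C, and was quantified by TMTpro 16plex LC-MS/MS with equalised channel sums. Thermal stability against control samples, from duplicates, is reported as log2 fold change.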
Consider STRIP2 (UniProt Q9ULQ0), for which the log2 fold change is inactive: 0.096.

With TAF6L (UniProt Q9Y6J9), the log2 fold change is inactive: -0.042. Turning to SUN1 isoform 9 (UniProt O94901), the log2 fold change is inactive: -0.164. In the case of SUCO (UniProt Q9UBS9), the log2 fold change was inactive: -0.018. Turning to SYTL4 (UniProt Q96C24), the log2 fold change was inactive: -0.078. As for STXBP5L (UniProt Q9Y2K9), the log2 fold change was inactive: 0.136. Turning to TACC2 (UniProt O95359), the log2 fold change was inactive: -0.015.

Take SUGP2 (UniProt Q8IX01): the log2 fold change was inactive: -0.27. Take TAF11 (UniProt Q15544): the log2 fold change is inactive: -0.104.

For TAF13 (UniProt Q15543), the log2 fold change is inactive: 0.058.

Consider TAF12 (UniProt Q16514), for which the log2 fold change was inactive: -0.099.

Consider TAB2 (UniProt Q9NYJ8), for which the log2 fold change was inactive: 0.041. Next, TAGLN (UniProt Q01995): inactive: -0.342. Turning to SUMF1 isoform 3 (UniProt Q8NBK3), the log2 fold change is inactive: 0.01. Regarding SVBP (UniProt Q8N300), the log2 fold change is inactive: -0.129.

The values are drawn from the supplement of paper PMC10849652.
